Experimental data from the supplement of paper PMC10849652.
The list shows a part of the results.

Amino acid sequences for entries named in this document (tags omitted). A change or cut given only in a name is not applied to a line headed by its entry.
UniProt O43324: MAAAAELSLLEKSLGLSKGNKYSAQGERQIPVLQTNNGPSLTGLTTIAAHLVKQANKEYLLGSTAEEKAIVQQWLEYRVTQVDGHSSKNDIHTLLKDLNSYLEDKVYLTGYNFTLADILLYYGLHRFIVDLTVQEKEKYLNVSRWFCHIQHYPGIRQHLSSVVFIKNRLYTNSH
UniProt Q9BVC3, whole entry, looked up: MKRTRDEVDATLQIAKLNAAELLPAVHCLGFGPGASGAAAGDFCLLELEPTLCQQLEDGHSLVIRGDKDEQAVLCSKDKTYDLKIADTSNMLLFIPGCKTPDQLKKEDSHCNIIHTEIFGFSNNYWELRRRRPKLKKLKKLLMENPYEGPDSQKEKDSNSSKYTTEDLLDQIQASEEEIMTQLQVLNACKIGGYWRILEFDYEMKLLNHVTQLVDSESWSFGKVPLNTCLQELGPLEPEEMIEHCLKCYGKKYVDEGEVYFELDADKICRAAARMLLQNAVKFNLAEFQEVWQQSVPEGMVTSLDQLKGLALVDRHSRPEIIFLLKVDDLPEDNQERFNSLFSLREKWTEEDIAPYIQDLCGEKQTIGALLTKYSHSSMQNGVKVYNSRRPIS
UniProt Q6P1R4: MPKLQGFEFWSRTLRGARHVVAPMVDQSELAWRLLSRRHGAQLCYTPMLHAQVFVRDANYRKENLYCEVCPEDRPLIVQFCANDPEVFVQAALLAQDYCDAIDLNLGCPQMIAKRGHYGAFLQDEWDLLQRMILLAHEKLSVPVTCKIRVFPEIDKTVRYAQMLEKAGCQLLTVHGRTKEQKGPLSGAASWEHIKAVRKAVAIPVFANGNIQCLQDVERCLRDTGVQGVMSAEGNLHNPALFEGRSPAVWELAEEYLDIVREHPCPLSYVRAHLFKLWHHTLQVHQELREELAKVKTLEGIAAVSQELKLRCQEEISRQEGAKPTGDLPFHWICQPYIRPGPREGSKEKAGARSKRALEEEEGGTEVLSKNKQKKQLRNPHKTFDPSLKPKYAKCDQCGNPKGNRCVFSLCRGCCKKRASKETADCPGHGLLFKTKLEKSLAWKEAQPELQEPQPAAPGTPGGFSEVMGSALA
UniProt Q9H410: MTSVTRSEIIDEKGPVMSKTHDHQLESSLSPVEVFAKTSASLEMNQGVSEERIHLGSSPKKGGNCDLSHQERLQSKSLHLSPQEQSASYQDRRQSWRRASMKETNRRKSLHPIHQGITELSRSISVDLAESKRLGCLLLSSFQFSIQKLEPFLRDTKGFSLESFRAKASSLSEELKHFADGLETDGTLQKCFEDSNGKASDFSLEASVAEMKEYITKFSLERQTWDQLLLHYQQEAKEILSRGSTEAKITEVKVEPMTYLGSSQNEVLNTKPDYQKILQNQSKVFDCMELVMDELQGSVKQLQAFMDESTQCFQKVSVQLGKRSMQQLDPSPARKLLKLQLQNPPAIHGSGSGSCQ
UniProt Q9BZG8: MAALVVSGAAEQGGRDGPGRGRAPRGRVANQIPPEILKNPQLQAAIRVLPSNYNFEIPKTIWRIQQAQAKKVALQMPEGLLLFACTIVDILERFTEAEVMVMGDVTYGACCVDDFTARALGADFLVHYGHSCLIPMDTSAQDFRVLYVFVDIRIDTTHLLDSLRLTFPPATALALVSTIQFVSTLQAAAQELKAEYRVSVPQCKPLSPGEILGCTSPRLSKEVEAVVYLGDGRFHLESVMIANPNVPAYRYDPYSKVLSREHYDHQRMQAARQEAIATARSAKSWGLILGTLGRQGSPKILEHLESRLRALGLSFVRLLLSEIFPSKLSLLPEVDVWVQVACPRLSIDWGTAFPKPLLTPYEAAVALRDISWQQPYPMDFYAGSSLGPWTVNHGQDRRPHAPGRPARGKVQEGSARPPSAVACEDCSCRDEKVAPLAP
UniProt Q8N5C7: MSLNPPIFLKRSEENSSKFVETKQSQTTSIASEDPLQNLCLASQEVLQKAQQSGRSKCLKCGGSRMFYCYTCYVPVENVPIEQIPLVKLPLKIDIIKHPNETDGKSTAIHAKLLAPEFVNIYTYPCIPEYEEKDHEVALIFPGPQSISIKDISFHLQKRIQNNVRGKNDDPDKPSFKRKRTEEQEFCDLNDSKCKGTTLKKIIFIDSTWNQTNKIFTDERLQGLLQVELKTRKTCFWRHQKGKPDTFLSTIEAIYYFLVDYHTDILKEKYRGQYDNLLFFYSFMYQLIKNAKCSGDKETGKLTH
UniProt Q9NZN4: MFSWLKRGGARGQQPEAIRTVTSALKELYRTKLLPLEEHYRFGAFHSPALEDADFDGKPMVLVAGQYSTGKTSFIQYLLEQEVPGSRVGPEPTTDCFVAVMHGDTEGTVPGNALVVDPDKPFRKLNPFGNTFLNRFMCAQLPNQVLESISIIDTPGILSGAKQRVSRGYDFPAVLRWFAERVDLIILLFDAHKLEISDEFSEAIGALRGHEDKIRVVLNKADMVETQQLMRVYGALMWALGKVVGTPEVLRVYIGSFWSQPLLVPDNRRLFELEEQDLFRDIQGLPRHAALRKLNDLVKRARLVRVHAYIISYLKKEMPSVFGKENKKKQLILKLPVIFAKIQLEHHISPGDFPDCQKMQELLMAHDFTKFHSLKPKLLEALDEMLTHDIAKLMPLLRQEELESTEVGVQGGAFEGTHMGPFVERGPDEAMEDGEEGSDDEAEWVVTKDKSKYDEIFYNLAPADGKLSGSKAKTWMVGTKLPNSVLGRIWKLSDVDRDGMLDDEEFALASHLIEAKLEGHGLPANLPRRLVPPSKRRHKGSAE
UniProt Q86TI2: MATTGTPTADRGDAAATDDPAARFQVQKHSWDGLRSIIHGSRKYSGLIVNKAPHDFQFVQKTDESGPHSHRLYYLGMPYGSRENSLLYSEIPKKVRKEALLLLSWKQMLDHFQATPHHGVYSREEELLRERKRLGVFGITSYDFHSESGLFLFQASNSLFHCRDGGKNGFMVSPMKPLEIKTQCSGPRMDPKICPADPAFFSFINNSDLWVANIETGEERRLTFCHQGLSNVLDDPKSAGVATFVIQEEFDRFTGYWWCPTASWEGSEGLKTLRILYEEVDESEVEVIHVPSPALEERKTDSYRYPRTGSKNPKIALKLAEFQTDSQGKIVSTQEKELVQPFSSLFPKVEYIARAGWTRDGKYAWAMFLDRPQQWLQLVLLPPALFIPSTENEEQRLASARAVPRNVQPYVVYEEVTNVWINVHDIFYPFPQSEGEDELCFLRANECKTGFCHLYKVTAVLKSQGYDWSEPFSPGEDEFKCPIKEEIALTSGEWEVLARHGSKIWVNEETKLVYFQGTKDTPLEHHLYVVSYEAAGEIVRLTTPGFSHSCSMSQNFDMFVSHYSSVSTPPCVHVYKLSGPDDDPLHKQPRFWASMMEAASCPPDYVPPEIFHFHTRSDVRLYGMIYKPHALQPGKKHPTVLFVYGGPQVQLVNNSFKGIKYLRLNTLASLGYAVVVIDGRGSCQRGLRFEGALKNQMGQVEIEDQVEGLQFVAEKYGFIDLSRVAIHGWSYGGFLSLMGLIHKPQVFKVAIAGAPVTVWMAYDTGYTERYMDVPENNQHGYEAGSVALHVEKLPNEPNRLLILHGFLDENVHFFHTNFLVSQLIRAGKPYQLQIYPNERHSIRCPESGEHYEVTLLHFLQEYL
UniProt Q9BZQ6: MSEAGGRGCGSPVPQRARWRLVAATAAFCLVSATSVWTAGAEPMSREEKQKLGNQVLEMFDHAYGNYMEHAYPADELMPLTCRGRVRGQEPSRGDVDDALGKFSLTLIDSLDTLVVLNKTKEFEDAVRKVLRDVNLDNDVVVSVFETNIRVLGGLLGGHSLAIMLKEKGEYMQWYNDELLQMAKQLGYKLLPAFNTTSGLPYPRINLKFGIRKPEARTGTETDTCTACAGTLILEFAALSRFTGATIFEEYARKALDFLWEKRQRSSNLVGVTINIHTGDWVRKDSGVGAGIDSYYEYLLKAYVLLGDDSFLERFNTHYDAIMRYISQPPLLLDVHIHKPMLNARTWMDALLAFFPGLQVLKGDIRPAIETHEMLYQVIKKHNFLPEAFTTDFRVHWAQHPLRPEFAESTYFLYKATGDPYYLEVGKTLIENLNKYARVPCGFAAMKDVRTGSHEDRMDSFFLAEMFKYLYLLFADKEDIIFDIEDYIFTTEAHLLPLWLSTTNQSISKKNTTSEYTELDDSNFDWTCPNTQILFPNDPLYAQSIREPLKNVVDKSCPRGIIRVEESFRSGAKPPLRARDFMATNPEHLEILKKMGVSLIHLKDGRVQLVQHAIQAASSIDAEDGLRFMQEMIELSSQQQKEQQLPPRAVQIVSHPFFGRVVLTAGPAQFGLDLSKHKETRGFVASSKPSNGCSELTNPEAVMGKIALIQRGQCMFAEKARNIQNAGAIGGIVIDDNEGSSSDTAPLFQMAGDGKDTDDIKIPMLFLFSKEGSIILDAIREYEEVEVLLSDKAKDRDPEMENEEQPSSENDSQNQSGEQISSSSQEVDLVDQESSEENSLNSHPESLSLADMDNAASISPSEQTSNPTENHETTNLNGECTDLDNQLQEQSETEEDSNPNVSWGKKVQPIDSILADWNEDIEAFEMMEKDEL
UniProt Q6UX65: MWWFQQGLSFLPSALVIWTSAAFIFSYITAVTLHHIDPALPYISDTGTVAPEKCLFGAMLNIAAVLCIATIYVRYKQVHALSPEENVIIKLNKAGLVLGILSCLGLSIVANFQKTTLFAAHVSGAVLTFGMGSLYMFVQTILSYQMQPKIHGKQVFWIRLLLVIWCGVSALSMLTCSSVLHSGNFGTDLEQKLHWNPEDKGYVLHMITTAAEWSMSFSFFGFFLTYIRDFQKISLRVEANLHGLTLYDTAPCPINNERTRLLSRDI
UniProt Q9NRR4: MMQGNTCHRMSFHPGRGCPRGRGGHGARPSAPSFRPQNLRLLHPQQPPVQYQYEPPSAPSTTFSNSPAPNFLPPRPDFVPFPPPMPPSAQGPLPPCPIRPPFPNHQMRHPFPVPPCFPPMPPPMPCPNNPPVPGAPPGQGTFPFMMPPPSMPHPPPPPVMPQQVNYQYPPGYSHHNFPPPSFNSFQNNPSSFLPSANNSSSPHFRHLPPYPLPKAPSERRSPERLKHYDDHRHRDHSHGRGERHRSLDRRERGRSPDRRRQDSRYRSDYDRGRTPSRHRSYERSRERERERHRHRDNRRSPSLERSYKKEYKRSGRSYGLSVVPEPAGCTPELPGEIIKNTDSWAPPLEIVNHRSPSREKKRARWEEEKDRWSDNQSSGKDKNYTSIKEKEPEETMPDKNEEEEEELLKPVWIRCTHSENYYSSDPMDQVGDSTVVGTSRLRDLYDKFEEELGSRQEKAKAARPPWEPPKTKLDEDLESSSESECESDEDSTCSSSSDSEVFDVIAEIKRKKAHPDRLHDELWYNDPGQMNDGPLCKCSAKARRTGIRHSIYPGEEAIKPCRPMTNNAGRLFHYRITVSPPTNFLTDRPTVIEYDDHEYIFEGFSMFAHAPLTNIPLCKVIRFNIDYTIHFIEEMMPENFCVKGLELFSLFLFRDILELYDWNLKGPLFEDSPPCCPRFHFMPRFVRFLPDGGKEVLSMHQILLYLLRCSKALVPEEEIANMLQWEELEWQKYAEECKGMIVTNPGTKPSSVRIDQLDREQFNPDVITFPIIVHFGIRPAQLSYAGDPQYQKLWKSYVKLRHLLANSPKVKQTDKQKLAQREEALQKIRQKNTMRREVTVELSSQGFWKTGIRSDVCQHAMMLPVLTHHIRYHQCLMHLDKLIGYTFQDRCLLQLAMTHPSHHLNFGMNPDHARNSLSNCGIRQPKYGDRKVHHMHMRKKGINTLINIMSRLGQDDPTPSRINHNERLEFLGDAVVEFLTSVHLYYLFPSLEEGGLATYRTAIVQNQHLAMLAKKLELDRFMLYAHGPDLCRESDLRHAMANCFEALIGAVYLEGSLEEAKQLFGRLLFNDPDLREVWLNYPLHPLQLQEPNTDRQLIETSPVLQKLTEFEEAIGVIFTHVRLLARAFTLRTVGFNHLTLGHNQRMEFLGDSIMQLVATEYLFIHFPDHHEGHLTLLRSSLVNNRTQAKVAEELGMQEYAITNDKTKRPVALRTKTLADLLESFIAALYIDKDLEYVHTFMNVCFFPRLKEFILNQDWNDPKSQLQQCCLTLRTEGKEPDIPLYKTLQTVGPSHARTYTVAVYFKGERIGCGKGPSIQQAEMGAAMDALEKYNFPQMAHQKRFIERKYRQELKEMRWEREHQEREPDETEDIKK
UniProt Q05639, whole entry, looked up: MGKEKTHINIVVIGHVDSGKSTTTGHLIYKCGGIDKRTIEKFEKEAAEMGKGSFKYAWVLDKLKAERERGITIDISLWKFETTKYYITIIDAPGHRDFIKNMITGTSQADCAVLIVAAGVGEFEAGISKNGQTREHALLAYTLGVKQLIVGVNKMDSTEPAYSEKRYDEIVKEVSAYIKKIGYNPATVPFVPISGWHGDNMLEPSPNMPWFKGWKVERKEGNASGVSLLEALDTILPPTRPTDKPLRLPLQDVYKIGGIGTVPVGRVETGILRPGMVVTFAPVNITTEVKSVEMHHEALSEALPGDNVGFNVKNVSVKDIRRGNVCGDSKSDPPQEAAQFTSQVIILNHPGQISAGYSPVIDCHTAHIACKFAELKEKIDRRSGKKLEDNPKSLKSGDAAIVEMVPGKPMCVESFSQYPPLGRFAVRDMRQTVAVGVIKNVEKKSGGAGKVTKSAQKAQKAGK

compound: C1=CC=C(C=C1)[C@H](COC2=CC3=C(C=C2)NC(=O)N3)NC(=O)C4=CC=CN(C4=O)CC5=CC(=C(C=C5)F)F; assay: log2 fold change, soluble protein after heating vs DMSO (PISA); higher = thermal stabilisation; K562 lysate, 10 uM; active = over 0.2 and 3.5 SD of the protein, either way, in both replicates (recomputed)
In short: (§1)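 Thermal stability, expressed as log-two fold change relative to solvent controls, is given from duplicates. Crude K562 extract in PBS pH 7.4 with 1 mM MgCl2, at 1 mg/mL protein, was treated with 10 μM compound for 30 min and heated in aliquots for 3 min across 48°C-58°C. After pooling, adjustment to 0.5% NP-40 at 4°C and centrifugation at 21,000xg for 90 min, supernatant protein was measured by TMTpro 16plex LC-MS/MS with channel sums equalised.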

Row | Target | log2 fold change
1 | EEF1E1 (UniProt O43324) | inactive: 0.007
2 | EI24 (UniProt O14681) | inactive: 0.011
3 | DSCC1 (UniProt Q9BVC3) | inactive: -0.073
4 | DTWD2 (UniProt Q8NBA8) | inactive: -0.032
5 | DSCAML1 (UniProt Q8TD84) | inactive: 0.051
6 | DST isoform 3 (UniProt Q03001) | inactive: -0.039
7 | DTX2 (UniProt Q86UW9) | inactive: -0.036
8 | EDC3 (UniProt Q96F86) | inactive: 0.036
9 | EEF1AKMT1 (UniProt Q8WVE0) | inactive: -0.073
10 | DUS1L (UniProt Q6P1R4) | inactive: 0.001
11 | DSG3 (UniProt P32926) | inactive: 0.197
12 | DSN1 (UniProt Q9H410) | inactive: -0.012
13 | DPH1 (UniProt Q9BZG8) | inactive: 0.04
14 | DTWD1 (UniProt Q8N5C7) | inactive: -0.003
15 | EHD2 (UniProt Q9NZN4) | inactive: -0.074
16 | DPP9 isoform 2 (UniProt Q86TI2) | inactive: 0.015
17 | EEF2 (UniProt P13639) | inactive: -0.008
18 | DVL3 (UniProt Q92997) | inactive: -0.041
19 | DYRK1A isoform 2 (UniProt Q13627) | inactive: -0.001
20 | EDEM3 (UniProt Q9BZQ6) | inactive: -0.053
21 | DRAM2 (UniProt Q6UX65) | inactive: 0.088
22 | DUSP19 (UniProt Q8WTR2) | inactive: -0.024
23 | DROSHA (UniProt Q9NRR4) | inactive: -0.113
24 | EEF1A2 (UniProt Q05639) | inactive: -0.02
25 | DPM3 isoform 2 (UniProt Q9P2X0) | inactive: -0.082
26 | EHHADH (UniProt Q08426) | inactive: 0.035

compound: CC1=C(SC2=C1C(=N[C@H](C3=NN=C(N32)C)CC(=O)N)C4=CC=C(C=C4)Cl)C; assay: as above
In short: as §1

Row | Target | log2 fold change
27 | EEF1E1 (UniProt O43324) | inactive: -0.032
28 | EI24 (UniProt O14681) | inactive: -0.012
29 | DSCC1 (UniProt Q9BVC3) | inactive: -0.021
30 | DTWD2 (UniProt Q8NBA8) | inactive: -0.02
31 | DSCAML1 (UniProt Q8TD84) | inactive: -0.036
32 | DST isoform 3 (UniProt Q03001) | inactive: -0.033
33 | DTX2 (UniProt Q86UW9) | inactive: 0.011
34 | EDC3 (UniProt Q96F86) | inactive: 0
35 | EEF1AKMT1 (UniProt Q8WVE0) | inactive: -0.075
36 | DUS1L (UniProt Q6P1R4) | inactive: 0.067
37 | DSG3 (UniProt P32926) | inactive: 0.037
38 | DSN1 (UniProt Q9H410) | inactive: 0.053
39 | DPH1 (UniProt Q9BZG8) | inactive: 0.02
40 | DTWD1 (UniProt Q8N5C7) | inactive: 0.075
41 | EHD2 (UniProt Q9NZN4) | inactive: -0.065
42 | DPP9 isoform 2 (UniProt Q86TI2) | inactive: -0.001
43 | EEF2 (UniProt P13639) | inactive: -0.008
44 | DVL3 (UniProt Q92997) | inactive: 0.035
45 | DYRK1A isoform 2 (UniProt Q13627) | inactive: -0.028
46 | EDEM3 (UniProt Q9BZQ6) | inactive: 0.019
47 | DRAM2 (UniProt Q6UX65) | inactive: -0.001
48 | DUSP19 (UniProt Q8WTR2) | inactive: -0.033
49 | DROSHA (UniProt Q9NRR4) | inactive: 0.158
50 | EEF1A2 (UniProt Q05639) | inactive: -0.001
51 | DPM3 isoform 2 (UniProt Q9P2X0) | inactive: -0.03
52 | EHHADH (UniProt Q08426) | inactive: -0.143

compound: CC1=C2C(=CC=C1)N=C(N(C2=O)C3=CC=CC=C3C)CN4C=NC5=C(N=CN=C54)N; assay: as above
In short: as §1

Row | Target | log2 fold change
53 | EEF1E1 (UniProt O43324) | inactive: -0.014
54 | DUSP14 (UniProt O95147) | inactive: 0.069
55 | EI24 (UniProt O14681) | inactive: -0.036
56 | DPY30 (UniProt Q9C005) | inactive: 0.118
57 | DSCC1 (UniProt Q9BVC3) | inactive: 0.015
58 | EGFL7 (UniProt Q9UHF1) | inactive: -0.077
59 | EDEM2 (UniProt Q9BV94) | inactive: 0.001
60 | EDC3 (UniProt Q96F86) | inactive: 0.028
61 | DUS1L (UniProt Q6P1R4) | inactive: 0.01
62 | EEF2KMT (UniProt Q96G04) | inactive: 0.217
63 | DYNC1I1 (UniProt O14576) | inactive: -0.101
64 | DSN1 (UniProt Q9H410) | inactive: 0.019
65 | DPH1 (UniProt Q9BZG8) | inactive: -0.014
66 | DTWD1 (UniProt Q8N5C7) | inactive: -0.004
67 | EHD2 (UniProt Q9NZN4) | inactive: 0.003
68 | DPP9 isoform 2 (UniProt Q86TI2) | inactive: -0.018
69 | EEF2 (UniProt P13639) | inactive: -0.006
70 | DVL3 (UniProt Q92997) | inactive: 0.164
71 | EDEM3 (UniProt Q9BZQ6) | inactive: -0.004
72 | DROSHA (UniProt Q9NRR4) | inactive: -0.004
73 | EEF1A2 (UniProt Q05639) | inactive: 0.009
74 | EGLN2 (UniProt Q96KS0) | inactive: -0.03
75 | DVL1 (UniProt O14640) | inactive: 0
